According to article PMC11530599:
Results are given in words; binding and its absence hold for the method and conditions named. In cells and extracts the contact can be indirect. Some results given as binding are weak or reduced against the parent protein; the word gives no strength. For some assays here: Tags and fused reporters may be left off the sequences shown.

Protein sequences, listed by entry. Tags and fused reporters are not part of them.
UniProt Q9H9Q4: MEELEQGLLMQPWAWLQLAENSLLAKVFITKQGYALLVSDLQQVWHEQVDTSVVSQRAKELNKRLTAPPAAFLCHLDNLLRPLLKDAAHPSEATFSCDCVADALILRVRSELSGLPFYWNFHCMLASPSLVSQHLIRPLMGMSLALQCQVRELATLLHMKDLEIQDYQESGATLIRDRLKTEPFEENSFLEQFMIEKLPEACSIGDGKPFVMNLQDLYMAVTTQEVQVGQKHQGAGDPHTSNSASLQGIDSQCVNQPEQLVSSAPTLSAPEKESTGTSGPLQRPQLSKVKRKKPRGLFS

Experiments:
[1] = biological target: T1, Flag-labeled UHRF1 (Ubiquitin-like with PHD and Ring Finger domains 1) (UniProt Q96T88); test: co-IP; Flag-XLF or Flag-UHRF1 overexpressed in HeLa cells for 48 h, after DNA damage; whole-cell lysate with BenzoNuclease; IP with anti-Flag antibody, Western blot of the endogenous partner; NP-40 lysis buffer (20 mM Tris-HCl pH 8.0, 137 mM NaCl, 10% glycerol, 1% NP-40), beads at 4 °C for 10 to 12 h
T1 sequence: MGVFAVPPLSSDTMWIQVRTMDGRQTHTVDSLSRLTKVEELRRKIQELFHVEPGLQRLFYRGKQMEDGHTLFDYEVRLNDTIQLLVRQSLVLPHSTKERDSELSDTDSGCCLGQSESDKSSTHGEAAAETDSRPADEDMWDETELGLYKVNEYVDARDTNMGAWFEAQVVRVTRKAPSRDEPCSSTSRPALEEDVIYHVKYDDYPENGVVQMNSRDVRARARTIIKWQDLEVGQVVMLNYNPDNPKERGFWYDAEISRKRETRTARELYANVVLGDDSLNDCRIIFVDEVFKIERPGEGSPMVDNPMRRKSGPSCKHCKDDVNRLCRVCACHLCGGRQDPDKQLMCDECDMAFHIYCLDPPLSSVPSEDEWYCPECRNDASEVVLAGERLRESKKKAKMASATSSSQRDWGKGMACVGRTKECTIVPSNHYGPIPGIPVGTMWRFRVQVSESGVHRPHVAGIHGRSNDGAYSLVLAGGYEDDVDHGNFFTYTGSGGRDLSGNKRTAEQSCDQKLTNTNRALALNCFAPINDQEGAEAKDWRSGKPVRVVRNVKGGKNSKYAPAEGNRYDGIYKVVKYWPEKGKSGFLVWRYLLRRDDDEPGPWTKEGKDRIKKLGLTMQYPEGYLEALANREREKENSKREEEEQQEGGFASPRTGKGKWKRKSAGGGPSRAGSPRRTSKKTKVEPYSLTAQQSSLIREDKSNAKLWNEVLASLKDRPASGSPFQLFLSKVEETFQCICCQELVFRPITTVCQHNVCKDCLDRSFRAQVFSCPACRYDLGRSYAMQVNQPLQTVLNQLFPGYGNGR

[2] = biological target: T2, endogenous UHRF1 (Ubiquitin-like with PHD and Ring Finger domains 1) (human (endogenous in HeLa)) (UniProt Q96T88); test: co-IP; endogenous proteins, HeLa whole-cell lysate; IP with anti-XLF or anti-UHRF1 antibody, Western blot; also untreated against 10 Gy IR for 30 min followed by 80 μM VP16 for 2 h (IP anti-UHRF1; interaction enhanced after DNA damage); NP-40 lysis buffer, 4 °C
T2 sequence: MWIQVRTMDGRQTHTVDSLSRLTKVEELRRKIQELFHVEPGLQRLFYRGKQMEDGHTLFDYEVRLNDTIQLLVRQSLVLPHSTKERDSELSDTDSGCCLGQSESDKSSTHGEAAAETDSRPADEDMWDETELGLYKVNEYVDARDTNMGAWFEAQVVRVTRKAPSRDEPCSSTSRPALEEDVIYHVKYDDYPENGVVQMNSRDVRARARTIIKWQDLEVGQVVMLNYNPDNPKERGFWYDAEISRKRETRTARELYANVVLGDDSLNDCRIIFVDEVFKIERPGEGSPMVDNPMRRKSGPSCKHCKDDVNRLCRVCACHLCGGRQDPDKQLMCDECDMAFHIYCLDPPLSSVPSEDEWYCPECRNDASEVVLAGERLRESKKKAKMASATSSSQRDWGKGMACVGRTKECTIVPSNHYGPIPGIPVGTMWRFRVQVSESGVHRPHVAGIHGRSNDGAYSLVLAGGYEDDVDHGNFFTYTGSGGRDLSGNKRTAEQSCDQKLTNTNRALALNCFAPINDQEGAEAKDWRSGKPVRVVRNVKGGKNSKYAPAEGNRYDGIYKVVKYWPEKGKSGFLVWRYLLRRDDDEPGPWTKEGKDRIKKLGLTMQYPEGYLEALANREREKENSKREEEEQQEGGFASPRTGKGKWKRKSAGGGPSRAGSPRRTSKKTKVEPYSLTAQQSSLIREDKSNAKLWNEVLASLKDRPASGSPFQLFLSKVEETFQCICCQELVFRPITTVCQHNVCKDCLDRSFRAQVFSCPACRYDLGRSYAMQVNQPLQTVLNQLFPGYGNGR

endogenous XLF (nonhomologous end joining factor XLF) (from UniProt Q9H9Q4 1-299)
binding [1]: binds | binding [2]: binds
